Measurements published in paper PMC4949214.

Tests used:
[1] = target: T1, OsSAP1 fused with the GAL4 DNA binding domain (SAP1-BD) (rice (Oryza sativa ssp. indica cv. Pusa Basmati-1)) (UniProt A2Z2J6); test: two-hybrid; GAL4 system, yeast; activation of the LacZ reporter, quantitative β-galactosidase assay with ONPG as substrate
T1 sequence: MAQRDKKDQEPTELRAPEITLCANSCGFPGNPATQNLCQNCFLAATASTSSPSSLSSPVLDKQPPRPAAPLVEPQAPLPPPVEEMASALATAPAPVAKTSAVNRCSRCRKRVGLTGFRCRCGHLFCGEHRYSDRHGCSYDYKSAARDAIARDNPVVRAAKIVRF

[2] = target: T2, linker region between A20 and AN1 domain of OsSAP1 fused with the GAL4 DNA binding domain (SAP1ΔA20ΔAN1-BD) (rice (Oryza sativa ssp. indica cv. Pusa Basmati-1)) (UniProt A2Z2J6); test: two-hybrid; GAL4 system, yeast AH109; BD baits (pGBKT7) co-transformed with AD clones (pGADT7-Rec); growth on SD/-His/-Leu/-Trp and SD/-Ade/-His/-Leu/-Trp
T2 sequence: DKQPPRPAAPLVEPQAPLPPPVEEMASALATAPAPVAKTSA

[3] = target: T3, A20 domain of OsSAP1 fused with the GAL4 DNA binding domain (A20-BD) (rice (Oryza sativa ssp. indica cv. Pusa Basmati-1)) (UniProt A2Z2J6); test: as above
T3 sequence: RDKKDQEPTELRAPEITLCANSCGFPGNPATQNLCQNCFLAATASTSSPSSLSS

[4] = target: T1, OsSAP1 fused with the GAL4 DNA binding domain (SAP1-BD) (rice (Oryza sativa ssp. indica cv. Pusa Basmati-1)); test: as above
[5] = target: T4, AN1 domain of OsSAP1 fused with the GAL4 DNA binding domain (AN1-BD) (rice (Oryza sativa ssp. indica cv. Pusa Basmati-1)) (UniProt A2Z2J6); test: as above
T4 sequence: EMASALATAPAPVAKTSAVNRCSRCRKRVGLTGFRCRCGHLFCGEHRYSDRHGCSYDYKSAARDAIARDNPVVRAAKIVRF

binding [1]: binds | binding [2]: binds | binding [3]: binds | binding [4]: binds | binding [5]: binds
Substance: OsAMTR1 (aminotransferase) fused with the GAL4 activation domain (AMTR1-AD)

Results are given in words; binding and its absence hold for the method and conditions named. Binding calls can cover weak binding; strength is not graded here. Where a sequence is shown, tags or fusion partners need not be part of it.
